PubChem BioAssay AID1259308, NCATS, 2017

- Screen: 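Knock-downs that increase output of a recombinant reporter protein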 (primary screen)
- Cell system: human HEK293 embryonic kidney cells stably expressing firefly luciferase (HEK-CMV-Luc2-Hygro)
- Knock-down reagent: single siRNA against human genes, 0.8 pmol siRNA per well
- Time to read-out: 72 h
- Read-out: 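Luciferase light (ONE-Glo) measured on one replicate plate set and viability (CellTiter-Glo) on the other, scaled to a negative control siRNA, with robust z-scores and luciferase per cell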
- Direction: total luciferase, z-score and total luciferase, % of control: higher = more reporter protein produced
- Call rule: 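An siRNA counts as active if its total luciferase robust z-score exceeds 3; genes with two or more such siRNAs out of three were retested with fresh siRNAs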
- Meaning of the calls: active = raised luciferase; inactive = no rise
This is an unselected part of about 59,000 reagents. Over the whole deposit, about 1,510 (2.6%) got an active call. 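Calls use total luciferase alone and ignore viability, so some active siRNAs may act by altering cell number.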 Reagents against one gene are numbered here. Further read-outs or replicates are left out here.

LGMN #1 gave total luciferase, z-score -0.681; total luciferase, % of control 68.3; inactive.
LGMN #2 showed total luciferase, z-score 2.2; total luciferase, % of control 126; inactive.
After knock-down of LGMN #3, the screen gave total luciferase, z-score -0.139; total luciferase, % of control 79.1; inactive.
For TMEM169 #1, the entry reads total luciferase, z-score -1.78; total luciferase, % of control 46.6; inactive.
TMEM169 #2 gave total luciferase, z-score 1.72; total luciferase, % of control 116; inactive.
For TMEM169 #3 the deposit lists total luciferase, z-score -0.777; total luciferase, % of control 66.4; inactive.
Against ZBTB49 #1 the deposit lists total luciferase, z-score 1.2; total luciferase, % of control 106; inactive.
With knock-down of ZBTB49 #2, the screen gave total luciferase, z-score 0.114; total luciferase, % of control 84.2; inactive.
Knock-down of ZBTB49 #3 came out at: total luciferase, z-score -1.95; total luciferase, % of control 43; inactive.
With knock-down of CROCC2 #1, the screen gave total luciferase, z-score -0.355; total luciferase, % of control 74.8; inactive.
After knock-down of CROCC2 #2, the record shows total luciferase, z-score 2.53; total luciferase, % of control 132; inactive.
With knock-down of CROCC2 #3, the screen gave total luciferase, z-score -1.27; total luciferase, % of control 56.7; inactive.

Sorted by “total luciferase, z-score” (high to low): 2 of the entries above.
CROCC2 #2 → total luciferase, z-score = 2.53; total luciferase, % of control = 132; call = inactive
CROCC2 #1 → total luciferase, z-score = -0.355; total luciferase, % of control = 74.8; call = inactive

Continued:
Knock-down of KRAS #1 resulted in: total luciferase, z-score 0.105; total luciferase, % of control 84; inactive.
Against KRAS #2 the deposit lists total luciferase, z-score -0.572; total luciferase, % of control 70.5; inactive.
Depletion of KRAS #3 resulted in: total luciferase, z-score -0.342; total luciferase, % of control 75.1; inactive.
After knock-down of PARM1 #1 the results were total luciferase, z-score -0.29; total luciferase, % of control 76.1; inactive.
For PARM1 #2, the values are total luciferase, z-score -1.85; total luciferase, % of control 45; inactive.
With knock-down of PARM1 #3, the screen gave total luciferase, z-score 2.81; total luciferase, % of control 138; inactive.
With knock-down of CERS6 #1, the record shows total luciferase, z-score -0.714; total luciferase, % of control 67.7; inactive.
Depletion of CERS6 #2 resulted in: total luciferase, z-score -0.495; total luciferase, % of control 72; inactive.
Against CERS6 #3 the deposit lists total luciferase, z-score 0.697; total luciferase, % of control 95.8; inactive.
